Results are given in words; binding and its absence hold for the method and conditions named. Some binding calls cover weakened binding; strength is not graded here.
Target: recombinant biotinylated PD-L1 (rhPD-L1/Fc Chimera, R&D Systems 156-B7) (human) (UniProt Q9NZQ7)
Assay: ELISA, lysate on plate-bound antigen

Chains of the proteins cited; added tags and fusions are not shown. Lines headed by an entry give the natural chain unless they say otherwise; changes in a name come on top.
UniProt Q9NZQ7: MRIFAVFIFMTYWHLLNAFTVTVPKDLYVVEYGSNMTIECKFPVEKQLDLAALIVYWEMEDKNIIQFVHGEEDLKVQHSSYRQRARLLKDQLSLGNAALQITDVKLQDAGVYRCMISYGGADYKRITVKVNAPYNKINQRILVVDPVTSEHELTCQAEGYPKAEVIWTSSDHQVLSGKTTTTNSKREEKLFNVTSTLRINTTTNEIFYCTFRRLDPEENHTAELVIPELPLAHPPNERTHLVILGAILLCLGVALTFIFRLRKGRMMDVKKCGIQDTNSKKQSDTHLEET

Binder | binding
ISOP121AR5P1E7 (designed binder, not shown: small tags and cut ends, FN3 domain; E. coli lysate in the ELISA) LPAPKNLVVSRVTEDSARLSWHVYHEIDYFDSFLIQYQESEKVGEAIVLTVPGSERSYDLTGLKPGTEYTVSIYGVYQRKVEFYSNPLSAIFTT | binds
ISOP121BR5P1C5 (designed binder, not shown: small tags and cut ends, FN3 domain; E. coli lysate in the ELISA) LPAPKNLVVSRVTEDSARLSWFRLRIVQTFDSFLIQYQESEKVGEAIVLTVPGSERSYDLTGLKPGTEYTVSIYGVITVVELLQQSNPLSAIFTT | binds
ISOP121AR5P1G6 (designed binder, not shown: small tags and cut ends, FN3 domain; E. coli lysate in the ELISA) LPAPKNLVVSRVTEDSARLSWHATFGDPFDSFLIQYQESEKVGEAIVLTVPGSERSYDLTGLKPGTEYTVSIYGVGRHYTVYDSNPLSAIFTT | binds
ISOP121BR5P1A6 (designed binder, not shown: small tags and cut ends, FN3 domain; E. coli lysate in the ELISA) LPAPKNLVVSRVTEDSARLSWASWLVAFFDSFLIQYQESEKVGEAIVLTVPGSERSYDLTGLKPGTEYTVSIYGVYQRHASAFVSNPLSAIFTT | binds
ISOP121AR5P1A10 (designed binder, not shown: small tags and cut ends, FN3 domain; E. coli lysate in the ELISA) LPAPKNLVVSRVTEDSARLSWPDWSNSEYFDSFLIQYQESEKVGEAIVLTVPGSERSYDLTGLKPGTEYTVSIYGVYARHRLFVSNPLSAIFTT | binds

Now from value to binder:

binding | Binder
binds | ISOP194AR9P1C3 (designed binder, not shown: small tags and cut ends, FN3 domain; E. coli lysate in the ELISA) LPAPKNLVVSRVTQNSARLSWEWLEHFDSFLIHYQESEKVGEAIVLTVPGSERSYDLTGLKPGTEYTVSIYGVYQRKVEFHSNPLSAIFTT
binds | ISOP194AR9P1H9 (designed binder, not shown: small tags and cut ends, FN3 domain; E. coli lysate in the ELISA) LPAPKNLVVSRVTEDSARLSWEWLEHFDSFQIQYQESEKVGEAIVLTVPGSERSYDLTGLKPGTEYTVSIYGVYQRKVEFHSNPLSAIFTT
binds | ISOP121BR5P1F7 (designed binder, not shown: small tags and cut ends, FN3 domain; E. coli lysate in the ELISA) LPAPKNLVVSRVTEDSARLSWHDATWQYFDSFLIQYQESEKVGEAIVLTVPGSERSYDLTGLKPGTEYTVSIYGVFHRKHIDFVSNPLSAIFTT
binds | ISOP121BR5P1D7 (designed binder, not shown: small tags and cut ends, FN3 domain; E. coli lysate in the ELISA) LPAPKNLGCFSRYRRLSRLSWETPYPSLSNFDSFLIQYQESEKVGEAIVLTVPGSERSYDLTGLKPGTEYTVSIYGVLKLSAAWWPSNPLSAIFTT
